From paper PMC10698194
Results are given in words; binding and its absence hold for the method and conditions named. Binding seen in cells or lysates may run through a third protein. Some entries that bind do so weakly or less than the wild type.

Sequences of proteins named here, by UniProt entry; tags and fusion partners are left off.
UniProt P33534: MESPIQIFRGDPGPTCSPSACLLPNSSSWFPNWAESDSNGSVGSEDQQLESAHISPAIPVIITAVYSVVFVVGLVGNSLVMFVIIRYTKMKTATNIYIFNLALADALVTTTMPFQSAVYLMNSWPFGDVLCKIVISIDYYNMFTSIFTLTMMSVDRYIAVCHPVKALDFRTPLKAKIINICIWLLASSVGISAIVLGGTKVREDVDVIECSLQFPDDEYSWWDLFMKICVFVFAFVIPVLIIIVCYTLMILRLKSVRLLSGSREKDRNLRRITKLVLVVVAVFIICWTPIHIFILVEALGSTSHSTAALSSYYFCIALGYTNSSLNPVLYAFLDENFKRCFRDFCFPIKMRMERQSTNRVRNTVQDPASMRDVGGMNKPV
UniProt P49407: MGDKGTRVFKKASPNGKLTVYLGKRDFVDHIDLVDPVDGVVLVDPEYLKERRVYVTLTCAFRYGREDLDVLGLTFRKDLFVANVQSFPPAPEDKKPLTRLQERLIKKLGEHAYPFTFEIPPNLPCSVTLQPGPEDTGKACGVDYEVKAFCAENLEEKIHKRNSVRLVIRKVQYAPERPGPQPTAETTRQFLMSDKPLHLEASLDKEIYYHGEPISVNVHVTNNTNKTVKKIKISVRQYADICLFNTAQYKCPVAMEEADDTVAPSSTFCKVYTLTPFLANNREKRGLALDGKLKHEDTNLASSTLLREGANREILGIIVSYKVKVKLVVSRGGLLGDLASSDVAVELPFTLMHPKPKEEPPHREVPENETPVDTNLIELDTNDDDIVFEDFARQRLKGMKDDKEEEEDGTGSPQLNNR
UniProt P32121: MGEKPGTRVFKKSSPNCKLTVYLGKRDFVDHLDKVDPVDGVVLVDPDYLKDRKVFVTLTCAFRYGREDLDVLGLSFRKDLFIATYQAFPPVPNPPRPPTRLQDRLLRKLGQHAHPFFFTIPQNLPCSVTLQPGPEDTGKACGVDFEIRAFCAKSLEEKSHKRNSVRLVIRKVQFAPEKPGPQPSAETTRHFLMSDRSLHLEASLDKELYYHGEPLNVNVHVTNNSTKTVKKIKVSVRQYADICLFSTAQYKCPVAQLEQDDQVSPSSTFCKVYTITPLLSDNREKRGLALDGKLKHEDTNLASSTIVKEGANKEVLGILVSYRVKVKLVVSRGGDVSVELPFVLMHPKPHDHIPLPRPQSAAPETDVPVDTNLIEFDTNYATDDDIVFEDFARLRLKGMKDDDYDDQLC

Biological target: mouse KOR-EGFP (mouse) (UniProt P33534)
Assay: FRET or BRET; HEK293 cells transiently co-expressing human β-arrestin-1/2-nano luciferase and mouse KOR-EGFP (1:10); agonist (DNCP-β-NalA(1), β-NalA, dyn A 1-13, U69,593) 5 min at 37 °C; furimazine

Row | Substance | binding
1 | human β-arrestin-1-nano luciferase (from UniProt P49407 1-418) | binds
2 | human β-arrestin-2-nano luciferase (from UniProt P32121 1-409) | binds
